Drawing on the supplement of paper PMC12819154, “High-throughput peptide-centric local stability assay extends protein–ligand identification to membrane proteins, tissues and bacteria” (Nature Structural & Molecular Biology, 2025), this text covers log2 fold change for ten targets.

Amino acid sequences for entries named in this document (tags omitted). A change or cut given only in a name is not applied to a line headed by its entry.
UniProt Q9Y388: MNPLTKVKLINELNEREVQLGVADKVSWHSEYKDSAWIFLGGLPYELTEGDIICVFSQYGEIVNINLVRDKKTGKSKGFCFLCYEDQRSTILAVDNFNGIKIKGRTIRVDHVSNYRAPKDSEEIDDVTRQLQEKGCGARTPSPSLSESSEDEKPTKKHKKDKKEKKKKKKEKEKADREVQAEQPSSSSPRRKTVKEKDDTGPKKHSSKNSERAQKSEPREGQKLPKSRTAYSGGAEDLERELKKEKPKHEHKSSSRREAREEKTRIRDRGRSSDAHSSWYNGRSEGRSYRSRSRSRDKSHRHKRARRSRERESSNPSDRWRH
UniProt Q9ULG6: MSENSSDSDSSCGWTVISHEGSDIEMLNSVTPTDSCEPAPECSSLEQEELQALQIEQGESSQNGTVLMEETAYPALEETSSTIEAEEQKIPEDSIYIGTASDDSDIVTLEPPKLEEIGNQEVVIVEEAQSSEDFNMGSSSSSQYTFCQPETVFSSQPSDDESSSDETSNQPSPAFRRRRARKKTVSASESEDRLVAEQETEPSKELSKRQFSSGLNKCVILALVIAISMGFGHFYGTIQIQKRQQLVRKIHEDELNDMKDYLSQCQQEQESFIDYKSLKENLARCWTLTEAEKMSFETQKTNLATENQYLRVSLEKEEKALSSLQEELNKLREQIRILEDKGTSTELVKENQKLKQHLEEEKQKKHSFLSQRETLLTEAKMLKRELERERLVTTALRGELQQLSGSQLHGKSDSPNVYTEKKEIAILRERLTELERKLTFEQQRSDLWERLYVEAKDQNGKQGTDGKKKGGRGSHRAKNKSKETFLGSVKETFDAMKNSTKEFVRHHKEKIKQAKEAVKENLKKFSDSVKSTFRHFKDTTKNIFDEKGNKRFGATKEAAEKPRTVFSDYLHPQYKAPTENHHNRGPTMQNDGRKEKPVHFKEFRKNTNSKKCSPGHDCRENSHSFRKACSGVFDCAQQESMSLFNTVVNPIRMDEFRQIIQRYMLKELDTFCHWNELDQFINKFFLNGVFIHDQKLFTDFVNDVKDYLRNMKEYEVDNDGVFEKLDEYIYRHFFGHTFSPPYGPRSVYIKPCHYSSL
UniProt Q9UPQ9, whole entry: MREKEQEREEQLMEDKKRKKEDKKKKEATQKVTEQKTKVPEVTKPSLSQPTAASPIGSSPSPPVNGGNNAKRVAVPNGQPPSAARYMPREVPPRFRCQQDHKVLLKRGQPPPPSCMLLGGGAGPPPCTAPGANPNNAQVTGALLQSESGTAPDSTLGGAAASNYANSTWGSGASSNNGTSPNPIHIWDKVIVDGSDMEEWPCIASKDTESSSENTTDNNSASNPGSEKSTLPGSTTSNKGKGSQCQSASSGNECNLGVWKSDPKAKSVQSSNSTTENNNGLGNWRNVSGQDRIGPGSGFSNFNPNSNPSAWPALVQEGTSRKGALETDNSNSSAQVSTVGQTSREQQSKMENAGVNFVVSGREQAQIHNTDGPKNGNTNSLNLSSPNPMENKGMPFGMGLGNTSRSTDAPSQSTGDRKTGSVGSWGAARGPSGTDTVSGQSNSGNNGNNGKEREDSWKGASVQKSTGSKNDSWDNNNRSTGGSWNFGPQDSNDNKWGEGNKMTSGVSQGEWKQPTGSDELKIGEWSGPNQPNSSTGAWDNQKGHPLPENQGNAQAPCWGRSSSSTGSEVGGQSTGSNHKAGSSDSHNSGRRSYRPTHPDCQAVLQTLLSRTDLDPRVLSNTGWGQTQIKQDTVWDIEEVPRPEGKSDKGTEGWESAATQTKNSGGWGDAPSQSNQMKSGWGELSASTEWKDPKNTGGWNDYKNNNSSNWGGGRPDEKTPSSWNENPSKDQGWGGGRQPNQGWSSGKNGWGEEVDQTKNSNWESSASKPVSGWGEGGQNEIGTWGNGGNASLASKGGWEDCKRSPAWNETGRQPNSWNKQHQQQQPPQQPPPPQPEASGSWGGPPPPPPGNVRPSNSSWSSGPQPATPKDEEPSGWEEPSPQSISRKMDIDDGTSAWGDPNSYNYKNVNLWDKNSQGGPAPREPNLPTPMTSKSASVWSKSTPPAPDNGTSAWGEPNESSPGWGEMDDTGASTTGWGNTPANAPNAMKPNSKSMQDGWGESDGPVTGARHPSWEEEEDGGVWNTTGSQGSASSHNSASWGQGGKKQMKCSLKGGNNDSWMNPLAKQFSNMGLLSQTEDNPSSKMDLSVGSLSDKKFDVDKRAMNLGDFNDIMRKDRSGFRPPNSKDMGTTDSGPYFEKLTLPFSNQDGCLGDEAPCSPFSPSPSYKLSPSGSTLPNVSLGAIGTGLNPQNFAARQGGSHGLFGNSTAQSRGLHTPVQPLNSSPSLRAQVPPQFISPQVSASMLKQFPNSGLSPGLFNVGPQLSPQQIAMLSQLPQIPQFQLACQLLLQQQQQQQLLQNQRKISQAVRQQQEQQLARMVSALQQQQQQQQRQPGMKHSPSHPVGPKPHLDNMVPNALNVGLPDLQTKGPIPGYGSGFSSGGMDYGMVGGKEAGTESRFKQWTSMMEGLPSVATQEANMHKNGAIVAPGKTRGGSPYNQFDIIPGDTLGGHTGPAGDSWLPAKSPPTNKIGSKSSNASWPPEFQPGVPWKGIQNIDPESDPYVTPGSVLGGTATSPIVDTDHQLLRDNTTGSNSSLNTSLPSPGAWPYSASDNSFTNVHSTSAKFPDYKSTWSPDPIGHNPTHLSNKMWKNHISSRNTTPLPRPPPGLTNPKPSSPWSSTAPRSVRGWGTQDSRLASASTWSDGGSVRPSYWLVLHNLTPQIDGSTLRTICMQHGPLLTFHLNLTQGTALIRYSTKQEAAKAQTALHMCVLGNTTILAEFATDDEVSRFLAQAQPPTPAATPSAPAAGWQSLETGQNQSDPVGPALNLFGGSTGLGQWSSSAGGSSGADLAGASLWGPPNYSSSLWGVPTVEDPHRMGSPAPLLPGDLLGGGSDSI
UniProt Q9ULC8: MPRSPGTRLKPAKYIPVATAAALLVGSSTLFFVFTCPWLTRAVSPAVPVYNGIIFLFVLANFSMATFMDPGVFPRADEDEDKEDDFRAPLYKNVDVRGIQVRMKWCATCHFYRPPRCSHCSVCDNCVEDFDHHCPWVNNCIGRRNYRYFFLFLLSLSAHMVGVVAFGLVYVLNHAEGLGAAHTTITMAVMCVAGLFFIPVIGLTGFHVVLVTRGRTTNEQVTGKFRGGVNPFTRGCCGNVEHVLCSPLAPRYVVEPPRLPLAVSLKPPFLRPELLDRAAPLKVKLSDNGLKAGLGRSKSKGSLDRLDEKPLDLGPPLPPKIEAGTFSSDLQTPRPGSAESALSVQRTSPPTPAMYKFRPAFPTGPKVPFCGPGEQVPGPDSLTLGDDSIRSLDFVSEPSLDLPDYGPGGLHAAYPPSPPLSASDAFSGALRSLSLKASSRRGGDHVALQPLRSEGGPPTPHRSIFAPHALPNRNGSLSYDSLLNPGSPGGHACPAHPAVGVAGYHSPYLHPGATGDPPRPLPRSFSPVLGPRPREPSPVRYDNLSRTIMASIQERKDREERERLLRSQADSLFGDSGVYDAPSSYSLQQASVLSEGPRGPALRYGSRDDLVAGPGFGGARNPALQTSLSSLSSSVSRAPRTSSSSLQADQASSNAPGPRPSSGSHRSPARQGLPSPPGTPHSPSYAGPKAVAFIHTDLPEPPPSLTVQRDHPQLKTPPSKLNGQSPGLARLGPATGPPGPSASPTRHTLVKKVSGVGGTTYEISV
UniProt Q9Y2Z4: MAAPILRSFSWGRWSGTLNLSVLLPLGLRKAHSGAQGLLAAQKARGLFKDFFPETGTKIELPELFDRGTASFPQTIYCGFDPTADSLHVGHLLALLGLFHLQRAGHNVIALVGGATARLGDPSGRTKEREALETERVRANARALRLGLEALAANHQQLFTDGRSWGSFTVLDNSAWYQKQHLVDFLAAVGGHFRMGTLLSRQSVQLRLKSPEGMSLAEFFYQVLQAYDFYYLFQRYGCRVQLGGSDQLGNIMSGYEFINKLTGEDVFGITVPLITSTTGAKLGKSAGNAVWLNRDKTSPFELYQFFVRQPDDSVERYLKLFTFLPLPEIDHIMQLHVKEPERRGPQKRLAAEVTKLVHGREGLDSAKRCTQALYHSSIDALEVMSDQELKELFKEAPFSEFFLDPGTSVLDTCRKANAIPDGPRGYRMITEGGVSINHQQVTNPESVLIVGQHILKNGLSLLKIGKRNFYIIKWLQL
UniProt Q9UQR0: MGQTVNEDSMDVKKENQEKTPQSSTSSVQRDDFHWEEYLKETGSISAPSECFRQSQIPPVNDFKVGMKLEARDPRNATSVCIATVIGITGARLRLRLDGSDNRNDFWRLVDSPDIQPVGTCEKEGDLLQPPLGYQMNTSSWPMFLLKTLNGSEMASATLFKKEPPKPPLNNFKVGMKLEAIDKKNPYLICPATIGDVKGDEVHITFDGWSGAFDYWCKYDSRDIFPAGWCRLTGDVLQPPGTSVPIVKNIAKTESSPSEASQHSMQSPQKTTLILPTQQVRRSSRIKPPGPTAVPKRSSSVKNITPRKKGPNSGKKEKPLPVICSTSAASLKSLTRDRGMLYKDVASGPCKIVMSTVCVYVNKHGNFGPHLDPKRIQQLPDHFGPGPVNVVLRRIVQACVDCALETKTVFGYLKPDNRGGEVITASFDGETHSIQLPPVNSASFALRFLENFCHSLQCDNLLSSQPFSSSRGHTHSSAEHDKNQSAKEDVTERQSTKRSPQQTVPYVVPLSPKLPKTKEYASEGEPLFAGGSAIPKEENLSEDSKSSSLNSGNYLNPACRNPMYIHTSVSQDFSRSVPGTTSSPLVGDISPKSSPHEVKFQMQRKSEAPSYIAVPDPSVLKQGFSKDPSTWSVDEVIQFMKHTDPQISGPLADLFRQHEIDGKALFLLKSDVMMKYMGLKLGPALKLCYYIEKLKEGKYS
UniProt Q9Y2T2: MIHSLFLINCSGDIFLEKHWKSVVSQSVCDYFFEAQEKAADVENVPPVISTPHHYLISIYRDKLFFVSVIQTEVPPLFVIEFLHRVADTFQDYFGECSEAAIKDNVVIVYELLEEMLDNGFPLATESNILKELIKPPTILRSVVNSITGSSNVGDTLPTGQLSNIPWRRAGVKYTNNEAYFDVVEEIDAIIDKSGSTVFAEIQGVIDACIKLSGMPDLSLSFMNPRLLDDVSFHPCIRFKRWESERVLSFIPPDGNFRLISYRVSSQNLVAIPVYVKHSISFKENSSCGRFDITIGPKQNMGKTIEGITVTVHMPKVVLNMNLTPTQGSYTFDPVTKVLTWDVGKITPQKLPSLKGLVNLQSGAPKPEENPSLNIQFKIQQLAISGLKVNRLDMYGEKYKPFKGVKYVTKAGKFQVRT
UniProt Q9UL25: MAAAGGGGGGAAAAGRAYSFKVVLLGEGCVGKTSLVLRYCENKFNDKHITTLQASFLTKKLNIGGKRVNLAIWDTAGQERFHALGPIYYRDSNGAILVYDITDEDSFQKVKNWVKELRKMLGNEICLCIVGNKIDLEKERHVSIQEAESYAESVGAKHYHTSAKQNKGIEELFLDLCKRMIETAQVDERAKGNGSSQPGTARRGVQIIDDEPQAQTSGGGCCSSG

This is one part of the list. Most entries show no effect beyond the scatter of the controls.

Compound in the test: CN[C@@H]1C[C@H]2O[C@@](C)([C@@H]1OC)n1c3ccccc3c3c4c(c5c6ccccc6n2c5c31)C(=O)NC4 [staurosporine]
Put plainly: log2 fold change of tryptic peptide abundance, ligand vs vehicle (limited proteolysis) (log2 ratio); higher = more trypsin-susceptible (destabilized). To be noted: ligand concentration: 20 uM; sample: K562 cleared lysate; digestion: 4 min, 22 C (HT-PELSA RT4min, Orbitrap Astral).
With “DNPEP (peptide sequence: VLDLGSPQLAMHSIR, peptide start residue: 439) (UniProt Q9ULA0)”, the log2 fold change is -0.349.
Consider “RBMX2 (peptide sequence: SSDAHSSWYNGR, peptide start residue: 272) (UniProt Q9Y388)”, for which the log2 fold change was found to be 0.352.
As for “CCPG1 (peptide sequence: TVSASESEDR, peptide start residue: 184) (UniProt Q9ULG6)”, the log2 fold change is -0.0836.
Take “TNRC6B (peptide sequence: QPTGSDELK, peptide start residue: 513) (UniProt Q9UPQ9)”: the log2 fold change was -0.411.
“ZDHHC8 (peptide sequence: TSPPTPAMYK, peptide start residue: 347) (UniProt Q9ULC8)”: the log2 fold change was 0.582.
Then “YARS2 (peptide sequence: KANAIPDGPR, peptide start residue: 415) (UniProt Q9Y2Z4)”, with 0.561; and “SCML2 (peptide sequence: LTGDVLQPPGTSVPIVK, peptide start residue: 232) (UniProt Q9UQR0)”, with -0.421.
Turning to “AP3M1 (peptide sequence: LLDDVSFHPCIR, peptide start residue: 227) (UniProt Q9Y2T2)”, the log2 fold change was -0.0885.
With “MRPL11 (peptide sequence: IGQPTVSYFLK, peptide start residue: 82) (UniProt Q9Y3B7)”, the log2 fold change came out at 0.0778.
Turning to “RAB21 (peptide sequence: AKGNGSSQPGTAR, peptide start residue: 190) (UniProt Q9UL25)”, the log2 fold change is -0.0279.
